This is one part of the list. Single values are uncertain, as repeats are few or missing.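 Cells were imaged in 1,536-well plates, and nuclei stained with an antibody against cleaved PARP were counted against all DNA-stained nuclei to give the apoptosis fraction. Screening doses were chosen to leave most cells alive, and resting and induced cleaved-PARP levels differ strongly between cell lines.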

The assay deals with C32. The assay is described as follows: cleaved PARP positive nuclei fraction relative to DMSO control; melanoma cells; higher = more apoptosis. The following applies: library dose: low library concentration; 72 h.
With `CS(=O)(=O)c1ccc(C(=O)Nc2ccc(Cl)c(-c3ccccn3)c2)c(Cl)c1` [vismodegib] + OCc1c[nH]c2ccccc12 [Indole-3-carbinol] (first compound 1 µM, partner dose 0.8 µM), the “cleaved PARP positive nuclei fraction” value amounted to 69.4%. With `COc1ccc(C2=N[C@@H](c3ccc(Cl)cc3)[C@@H](c3ccc(Cl)cc3)N2C(=O)N2CCNC(=O)C2)c(OC(C)C)c1` [Nutlin-3] + NC1(c2ccc(-c3nc4ccn5c(=O)[nH]nc5c4cc3-c3ccccc3)cc2)CCC1 [MK2206] (first compound 0.1 µM, partner dose 0.4 µM), the “cleaved PARP positive nuclei fraction” value is 31%. As for `COc1ccc(C2=N[C@@H](c3ccc(Cl)cc3)[C@@H](c3ccc(Cl)cc3)N2C(=O)N2CCNC(=O)C2)c(OC(C)C)c1` [Nutlin-3] + Clc1ccc(Nc2nnc(Cc3ccncc3)c3ccccc23)cc1 [vatalanib] (first compound 0.1 µM, partner dose 2 µM), the “cleaved PARP positive nuclei fraction” value is 199%. With `Cn1sc(=O)n(Cc2ccccc2)c1=O` + CN(c1ncccc1CNc1nc(Nc2ccc3c(c2)CC(=O)N3)ncc1C(F)(F)F)S(C)(=O)=O [PF562271] (first compound 0.4 µM, partner dose 0.08 µM) the figure was 153%. In the case of `Cn1cnc2c(F)c(Nc3ccc(Br)cc3Cl)c(C(=O)NOCCO)cc21` [selumetinib] + CNC(=O)c1cc(Oc2ccc(NC(=O)Nc3ccc(Cl)c(C(F)(F)F)c3)cc2)ccn1 [sorafenib] (first compound 0.015 µM, partner dose 0.4 µM), the “cleaved PARP positive nuclei fraction” value was 44%. In the case of `NC1(c2ccc(-c3nc4ccn5c(=O)[nH]nc5c4cc3-c3ccccc3)cc2)CCC1` + CCCS(=O)(=O)Nc1ccc(F)c(C(=O)c2c[nH]c3ncc(Cl)cc23)c1F [PLX4720] (first compound 0.4 µM, partner dose 0.08 µM), the “cleaved PARP positive nuclei fraction” value stood at 179%. As for `NC(=O)c1ccc(N(C(N)=O)c2c(F)cccc2F)nc1-c1ccc(F)cc1F` + C#Cc1cccc(Nc2ncnc3cc(OCCOC)c(OCCOC)cc23)c1 [erlotinib] (first compound 0.4 µM, partner dose 0.8 µM), the “cleaved PARP positive nuclei fraction” value stood at 76%. Regarding `C[C@@H](N)c1ccc(C(=O)Nc2ccnc3[nH]ccc23)cc1` + Cn1sc(=O)n(Cc2ccccc2)c1=O [TDZD-8] (first compound 0.4 µM, partner dose 0.4 µM), the “cleaved PARP positive nuclei fraction” value was 42.4%. For the molecule `CS(=O)(=O)c1ccc(C(=O)Nc2ccc(Cl)c(-c3ccccn3)c2)c(Cl)c1` [vismodegib] + CCCCCCCCc1ccc(CCC(N)(CO)CO)cc1 [fingolimod] (first compound 1 µM, partner dose 2 µM), the “cleaved PARP positive nuclei fraction” value was determined as 91%. As to `Cn1cnc2c(F)c(Nc3ccc(Br)cc3Cl)c(C(=O)NOCCO)cc21` [selumetinib] + C#Cc1cccc(Nc2ncnc3cc(OCCOC)c(OCCOC)cc23)c1 [erlotinib] (first compound 0.015 µM, partner dose 0.8 µM), the “cleaved PARP positive nuclei fraction” value turned out to be 82.5%. For `CC1(C)CCC(c2ccc(Cl)cc2)=C(CN2CCN(c3ccc(C(=O)NS(=O)(=O)c4ccc(N[C@H](CCN5CCOCC5)CSc5ccccc5)c(S(=O)(=O)C(F)(F)F)c4)cc3)CC2)C1` + CS(=O)(=O)CCNCc1ccc(-c2ccc3ncnc(Nc4ccc(OCc5cccc(F)c5)c(Cl)c4)c3c2)o1 [lapatinib] (first compound 0.4 µM, partner dose 0.8 µM), the “cleaved PARP positive nuclei fraction” value turned out to be 113%. The same measure for `CC1(C)CCC(c2ccc(Cl)cc2)=C(CN2CCN(c3ccc(C(=O)NS(=O)(=O)c4ccc(N[C@H](CCN5CCOCC5)CSc5ccccc5)c(S(=O)(=O)C(F)(F)F)c4)cc3)CC2)C1` + O=C(O)[C@@H]1[O][Sb](=[O])([O][Sb]2(=[O])[O][C@H]([C@H](O)CO)[C@H](O)[C@H](C(=O)O)[O]2)[O][C@H]([C@H](O)CO)[C@@H]1O [stibogluconate] (first compound 0.4 µM, partner dose 2 µM): 167%. With `CC1(C)CCC(c2ccc(Cl)cc2)=C(CN2CCN(c3ccc(C(=O)NS(=O)(=O)c4ccc(N[C@H](CCN5CCOCC5)CSc5ccccc5)c(S(=O)(=O)C(F)(F)F)c4)cc3)CC2)C1` + Nc1ccn([C@@H]2O[C@H](CO)[C@@H](O)C2(F)F)c(=O)n1 [gemcitabine] (first compound 0.4 µM, partner dose 0.0004 µM) the figure was 169%.

(Values after the supplement of paper PMC4604168 (melanoma cell lines).)
